# Measurements taken from article PMC7037731, “Synthesis, Anticancer Activity, and Preliminary Pharmacokinetic Evaluation of 4,4-Disubstituted Curcuminoid 2,2-bis(Hydroxymethyl)Propionate Derivatives” (Molecules, 2020).
# Assay: Solubility in aqueous dosing vehicle
# Format: physicochemical
# Details: 5% ethanol, 10% Tween 80, 85% saline
# From the text: Subsequently, the latter would be converted into glucuronide 22 and sulfate 23 through the phase II metabolism conjugation of hydrogenated products 18, 19, 20, and 21 via the phase I metabolic pathway (Scheme 6). To verify our assumptions, the preliminary pharmacokinetic evaluation of 2 was executed.
smiles,measurement,value
"COc1cc(/C=C/C(=O)CC(=O)/C=C/c2ccc(O)c(OC)c2)ccc1O [Curcumin, (1E,6E)-1,7-bis(4-hydroxy-3-methoxyphenyl)hepta-1,6-diene-3,5-dione]",solubility in aqueous vehicle,almost insoluble
